The other results are listed elsewhere or left out. The data scatter; read single values as rough.
Experiments:
[1] = compound: ClCC(=O)N[C@@H]1CCCc2ccccc12; experiment: log2 mean competition ratio of IA-DTB cysteine labelling (DMSO/compound) (log2 ratio); higher = stronger cysteine engagement by compound; settings: treatment time: 4 h, cell line lysate: HEK293T
Method: (§1)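 IA-DTB competitive cysteine chemoproteomics in HEK293T RIPA lysate. Lysates were treated with compound 29 or 30 at 50 or 200 µM for 4 h, then IA-DTB (500 µM, 1 h), trypsin-digested, NeutrAvidin-enriched and analysed by diaPASEF. Competition ratio = intensity DMSO / intensity compound (n=4 treated, n=64 DMSO); binding: mean log2 CR ≥ 1 and p ≤ 0.05 plus QC filters. Target is the cysteine site.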

Amino acid sequences for entries named in this document (tags omitted). A change or cut given only in a name is not applied to a line headed by its entry. Residues count along the entry.
UniProt Q99805: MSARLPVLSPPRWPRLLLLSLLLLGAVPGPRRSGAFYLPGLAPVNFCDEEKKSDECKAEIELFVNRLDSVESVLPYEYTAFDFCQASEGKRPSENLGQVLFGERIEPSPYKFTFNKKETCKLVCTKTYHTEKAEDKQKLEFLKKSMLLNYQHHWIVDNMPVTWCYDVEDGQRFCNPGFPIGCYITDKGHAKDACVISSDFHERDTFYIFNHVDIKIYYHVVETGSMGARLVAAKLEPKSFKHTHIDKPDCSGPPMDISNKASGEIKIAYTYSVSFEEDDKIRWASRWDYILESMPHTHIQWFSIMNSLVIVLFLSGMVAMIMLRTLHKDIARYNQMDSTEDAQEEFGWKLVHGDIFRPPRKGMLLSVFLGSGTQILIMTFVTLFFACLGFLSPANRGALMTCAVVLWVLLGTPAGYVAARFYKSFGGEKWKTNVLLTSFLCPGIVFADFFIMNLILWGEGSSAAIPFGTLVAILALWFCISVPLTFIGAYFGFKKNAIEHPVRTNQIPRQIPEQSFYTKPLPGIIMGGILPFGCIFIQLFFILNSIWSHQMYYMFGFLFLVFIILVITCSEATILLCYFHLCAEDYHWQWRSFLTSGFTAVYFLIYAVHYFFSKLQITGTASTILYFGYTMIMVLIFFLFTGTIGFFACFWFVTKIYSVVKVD
UniProt Q9ULW0, 84-111: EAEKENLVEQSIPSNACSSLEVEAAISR
UniProt Q12933: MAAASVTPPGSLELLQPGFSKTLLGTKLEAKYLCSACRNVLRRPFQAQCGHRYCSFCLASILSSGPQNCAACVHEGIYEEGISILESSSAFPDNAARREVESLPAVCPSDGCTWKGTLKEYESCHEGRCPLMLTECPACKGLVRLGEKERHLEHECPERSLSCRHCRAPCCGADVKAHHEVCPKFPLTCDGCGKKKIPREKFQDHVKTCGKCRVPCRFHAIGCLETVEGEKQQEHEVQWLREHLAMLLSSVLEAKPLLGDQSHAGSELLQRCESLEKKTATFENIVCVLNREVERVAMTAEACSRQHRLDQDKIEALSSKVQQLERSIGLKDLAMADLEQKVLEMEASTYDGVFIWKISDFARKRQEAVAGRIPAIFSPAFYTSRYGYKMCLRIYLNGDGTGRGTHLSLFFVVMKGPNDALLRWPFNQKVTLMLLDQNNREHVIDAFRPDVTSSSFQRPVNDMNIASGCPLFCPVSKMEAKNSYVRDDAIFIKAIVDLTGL
UniProt P19474, 456-475: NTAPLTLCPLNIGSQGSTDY
UniProt A0PJW6: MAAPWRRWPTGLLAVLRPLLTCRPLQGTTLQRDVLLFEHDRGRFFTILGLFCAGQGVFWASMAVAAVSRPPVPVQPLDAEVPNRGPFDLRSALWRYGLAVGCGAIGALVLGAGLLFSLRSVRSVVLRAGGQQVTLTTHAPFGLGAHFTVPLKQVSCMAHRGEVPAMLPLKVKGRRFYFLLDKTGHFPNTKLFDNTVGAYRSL
UniProt Q8N9M5: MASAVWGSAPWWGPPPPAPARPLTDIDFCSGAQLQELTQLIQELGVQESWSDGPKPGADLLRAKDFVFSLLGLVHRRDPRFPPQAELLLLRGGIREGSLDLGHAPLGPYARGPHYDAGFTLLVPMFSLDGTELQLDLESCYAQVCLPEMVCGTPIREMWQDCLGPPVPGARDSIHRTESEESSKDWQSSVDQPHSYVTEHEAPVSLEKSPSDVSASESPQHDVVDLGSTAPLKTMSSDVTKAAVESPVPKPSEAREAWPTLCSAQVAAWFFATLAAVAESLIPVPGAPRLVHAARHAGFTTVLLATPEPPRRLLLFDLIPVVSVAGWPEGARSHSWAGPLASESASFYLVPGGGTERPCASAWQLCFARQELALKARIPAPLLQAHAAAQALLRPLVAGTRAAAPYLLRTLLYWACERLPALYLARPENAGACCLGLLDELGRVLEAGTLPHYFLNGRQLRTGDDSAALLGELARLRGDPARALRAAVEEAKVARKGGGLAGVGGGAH
UniProt Q9Y4K3, 366-388: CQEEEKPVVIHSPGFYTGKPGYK
UniProt Q5SNT2: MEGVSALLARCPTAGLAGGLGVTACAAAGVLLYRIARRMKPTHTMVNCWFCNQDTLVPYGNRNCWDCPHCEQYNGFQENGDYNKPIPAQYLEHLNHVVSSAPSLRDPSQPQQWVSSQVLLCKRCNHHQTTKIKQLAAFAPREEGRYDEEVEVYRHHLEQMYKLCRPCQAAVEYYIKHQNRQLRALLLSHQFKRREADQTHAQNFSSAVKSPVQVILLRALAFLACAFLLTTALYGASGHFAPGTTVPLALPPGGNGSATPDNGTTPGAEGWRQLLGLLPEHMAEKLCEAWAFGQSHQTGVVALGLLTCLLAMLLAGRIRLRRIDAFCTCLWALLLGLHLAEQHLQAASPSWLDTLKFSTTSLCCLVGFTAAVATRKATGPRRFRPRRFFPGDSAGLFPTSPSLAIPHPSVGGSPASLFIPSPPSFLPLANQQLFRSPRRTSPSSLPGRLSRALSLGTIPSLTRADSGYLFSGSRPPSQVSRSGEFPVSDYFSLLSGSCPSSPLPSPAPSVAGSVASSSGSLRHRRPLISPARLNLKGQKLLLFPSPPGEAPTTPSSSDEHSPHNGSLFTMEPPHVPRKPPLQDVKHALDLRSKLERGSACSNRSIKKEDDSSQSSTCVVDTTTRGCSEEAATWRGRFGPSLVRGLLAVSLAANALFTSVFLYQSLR
UniProt Q92973, 163-186: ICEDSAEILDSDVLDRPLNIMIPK
UniProt Q6NUQ4: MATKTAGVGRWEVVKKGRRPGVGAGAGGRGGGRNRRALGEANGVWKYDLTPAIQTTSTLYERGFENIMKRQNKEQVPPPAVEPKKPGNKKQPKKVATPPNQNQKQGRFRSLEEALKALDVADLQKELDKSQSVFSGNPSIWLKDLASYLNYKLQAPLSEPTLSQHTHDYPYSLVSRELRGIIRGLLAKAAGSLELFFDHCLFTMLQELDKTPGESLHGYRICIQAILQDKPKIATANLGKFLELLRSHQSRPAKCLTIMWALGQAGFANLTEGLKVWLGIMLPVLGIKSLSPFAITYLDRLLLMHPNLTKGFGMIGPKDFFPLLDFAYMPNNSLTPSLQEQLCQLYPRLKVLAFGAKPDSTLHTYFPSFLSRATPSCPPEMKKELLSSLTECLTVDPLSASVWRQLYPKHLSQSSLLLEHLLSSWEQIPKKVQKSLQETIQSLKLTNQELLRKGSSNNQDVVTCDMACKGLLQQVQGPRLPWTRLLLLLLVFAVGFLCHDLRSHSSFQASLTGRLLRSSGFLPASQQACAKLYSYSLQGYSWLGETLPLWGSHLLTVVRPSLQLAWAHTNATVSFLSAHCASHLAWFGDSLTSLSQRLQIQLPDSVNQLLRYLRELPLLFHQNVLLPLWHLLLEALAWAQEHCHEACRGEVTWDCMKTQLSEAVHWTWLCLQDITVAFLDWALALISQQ
UniProt Q96DC7: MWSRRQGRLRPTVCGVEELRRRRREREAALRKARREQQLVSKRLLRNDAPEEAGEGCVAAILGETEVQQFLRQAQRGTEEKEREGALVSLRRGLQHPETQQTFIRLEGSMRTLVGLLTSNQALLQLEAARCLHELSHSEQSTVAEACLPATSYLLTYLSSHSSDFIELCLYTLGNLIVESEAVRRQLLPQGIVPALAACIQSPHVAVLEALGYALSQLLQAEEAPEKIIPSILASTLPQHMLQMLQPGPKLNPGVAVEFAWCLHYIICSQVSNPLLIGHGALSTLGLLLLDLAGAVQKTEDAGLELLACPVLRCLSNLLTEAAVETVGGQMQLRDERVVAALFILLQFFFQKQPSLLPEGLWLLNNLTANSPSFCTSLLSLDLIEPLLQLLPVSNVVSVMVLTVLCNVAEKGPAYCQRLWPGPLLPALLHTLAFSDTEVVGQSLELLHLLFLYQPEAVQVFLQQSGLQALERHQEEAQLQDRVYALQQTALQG
UniProt P11388: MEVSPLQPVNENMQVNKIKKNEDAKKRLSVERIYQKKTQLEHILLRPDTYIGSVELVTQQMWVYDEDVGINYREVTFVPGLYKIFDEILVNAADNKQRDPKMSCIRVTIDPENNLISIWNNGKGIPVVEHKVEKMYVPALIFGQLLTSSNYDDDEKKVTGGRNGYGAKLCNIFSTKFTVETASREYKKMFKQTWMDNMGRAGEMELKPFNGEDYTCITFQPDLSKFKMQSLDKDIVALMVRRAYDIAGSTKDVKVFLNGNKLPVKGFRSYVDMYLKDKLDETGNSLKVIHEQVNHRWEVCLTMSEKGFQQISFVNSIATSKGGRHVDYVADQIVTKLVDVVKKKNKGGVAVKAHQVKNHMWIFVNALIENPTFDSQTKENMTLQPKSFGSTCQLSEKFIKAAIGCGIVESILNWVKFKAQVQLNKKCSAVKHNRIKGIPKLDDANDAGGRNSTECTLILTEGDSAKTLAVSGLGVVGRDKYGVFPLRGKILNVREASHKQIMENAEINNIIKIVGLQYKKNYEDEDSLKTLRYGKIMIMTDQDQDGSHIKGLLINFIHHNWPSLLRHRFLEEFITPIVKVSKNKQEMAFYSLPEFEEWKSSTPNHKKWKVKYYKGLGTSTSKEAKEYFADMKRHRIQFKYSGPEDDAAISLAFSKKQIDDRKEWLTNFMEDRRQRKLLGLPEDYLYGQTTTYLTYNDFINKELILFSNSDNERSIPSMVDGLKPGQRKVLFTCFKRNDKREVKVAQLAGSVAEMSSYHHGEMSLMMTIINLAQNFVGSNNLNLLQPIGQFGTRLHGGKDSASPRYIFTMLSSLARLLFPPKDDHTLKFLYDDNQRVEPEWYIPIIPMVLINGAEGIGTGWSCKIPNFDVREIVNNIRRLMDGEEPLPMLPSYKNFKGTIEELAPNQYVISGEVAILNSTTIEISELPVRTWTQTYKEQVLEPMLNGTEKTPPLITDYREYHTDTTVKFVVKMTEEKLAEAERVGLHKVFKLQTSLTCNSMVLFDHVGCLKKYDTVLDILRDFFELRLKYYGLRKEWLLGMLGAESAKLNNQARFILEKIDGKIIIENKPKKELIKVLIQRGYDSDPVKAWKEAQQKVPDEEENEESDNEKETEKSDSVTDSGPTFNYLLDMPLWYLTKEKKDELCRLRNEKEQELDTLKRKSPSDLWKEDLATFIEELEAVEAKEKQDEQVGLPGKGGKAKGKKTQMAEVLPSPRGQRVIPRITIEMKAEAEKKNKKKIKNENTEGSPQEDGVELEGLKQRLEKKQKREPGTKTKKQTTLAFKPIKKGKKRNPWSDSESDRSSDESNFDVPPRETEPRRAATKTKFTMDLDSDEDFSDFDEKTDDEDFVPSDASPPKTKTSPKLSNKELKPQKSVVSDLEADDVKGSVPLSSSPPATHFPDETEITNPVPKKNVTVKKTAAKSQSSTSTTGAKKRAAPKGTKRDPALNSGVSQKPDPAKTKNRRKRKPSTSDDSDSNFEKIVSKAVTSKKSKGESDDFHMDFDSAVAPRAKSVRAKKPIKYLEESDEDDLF
UniProt Q9Y5L0: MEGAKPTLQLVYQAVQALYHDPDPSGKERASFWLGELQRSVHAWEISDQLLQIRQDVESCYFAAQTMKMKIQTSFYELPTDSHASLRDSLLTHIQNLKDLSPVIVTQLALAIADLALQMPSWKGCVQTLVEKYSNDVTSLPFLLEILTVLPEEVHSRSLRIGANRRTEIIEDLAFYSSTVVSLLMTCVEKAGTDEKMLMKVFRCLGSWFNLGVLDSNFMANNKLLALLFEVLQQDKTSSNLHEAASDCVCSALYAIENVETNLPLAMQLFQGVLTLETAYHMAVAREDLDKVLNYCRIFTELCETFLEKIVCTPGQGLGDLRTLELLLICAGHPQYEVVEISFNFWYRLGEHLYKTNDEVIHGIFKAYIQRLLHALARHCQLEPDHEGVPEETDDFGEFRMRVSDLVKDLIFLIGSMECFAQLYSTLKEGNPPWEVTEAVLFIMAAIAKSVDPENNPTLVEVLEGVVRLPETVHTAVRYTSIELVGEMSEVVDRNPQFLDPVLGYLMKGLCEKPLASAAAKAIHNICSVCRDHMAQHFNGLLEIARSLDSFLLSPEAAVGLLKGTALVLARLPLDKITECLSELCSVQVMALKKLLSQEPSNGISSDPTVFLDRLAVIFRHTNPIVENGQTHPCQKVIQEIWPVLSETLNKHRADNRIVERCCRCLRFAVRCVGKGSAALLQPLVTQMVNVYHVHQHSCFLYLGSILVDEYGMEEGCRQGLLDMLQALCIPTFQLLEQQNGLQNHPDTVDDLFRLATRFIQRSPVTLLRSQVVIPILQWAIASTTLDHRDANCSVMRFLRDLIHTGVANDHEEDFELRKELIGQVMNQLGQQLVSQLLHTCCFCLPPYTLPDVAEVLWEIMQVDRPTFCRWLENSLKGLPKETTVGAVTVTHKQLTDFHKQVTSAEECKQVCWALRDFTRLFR
UniProt P82094, 399-426: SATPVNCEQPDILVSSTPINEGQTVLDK
UniProt P60174: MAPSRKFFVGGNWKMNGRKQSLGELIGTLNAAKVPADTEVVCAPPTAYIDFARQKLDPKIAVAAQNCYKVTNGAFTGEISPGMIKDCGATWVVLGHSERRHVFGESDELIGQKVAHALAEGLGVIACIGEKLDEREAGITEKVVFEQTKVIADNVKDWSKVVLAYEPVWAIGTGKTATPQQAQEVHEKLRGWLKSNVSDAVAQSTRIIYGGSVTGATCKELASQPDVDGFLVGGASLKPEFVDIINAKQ
UniProt Q9Y490, 722-741: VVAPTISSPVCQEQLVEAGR

[2] = compound: ClCC(=O)N[C@H]1CCCc2ccccc12; experiment: as above; settings: treatment time: 4 h, cell line lysate: HEK293T
Method: as §1

Row | Target | log2 mean competition ratio ([1]; 50 µM) | log2 mean competition ratio ([1]; 200 µM) | log2 mean competition ratio ([2]; 50 µM) | log2 mean competition ratio ([2]; 200 µM)
1 | TM9SF2 C250 (UniProt Q99805) | 0.0849 | 0.0393 |  | 
2 | TLE3 C26 | -0.254 | -0.00262 |  | 
3 | TPX2 C364 (UniProt Q9ULW0) | 0.157 | 0.121 |  | 
4 | TRAF2 C182 (UniProt Q12933) | -0.0303 | -0.103 |  | 
5 | TRAPPC10 C696 (UniProt P48553) | 0.00113 | 0.314 |  | 
6 | TRIM21 C463 (UniProt P19474) | -0.157 | -1.15 |  | 
7 | TNFRSF1A C248 (UniProt P19438) | -0.164 | -0.301 |  | 
8 | TLN2 C289 (UniProt Q9Y4G6) | 0.407 | 0.00269 |  | 
9 | TMED9 C49 (UniProt Q9BVK6) | -0.314 | 0.0281 |  | 
10 | TMEM223 C156 (UniProt A0PJW6) | 0.0991 | 0.244 |  | 
11 | TMEM102 C162 (UniProt Q8N9M5) | 0.271 | -0.0805 |  | 
12 | TMA16 C162 (UniProt Q96EY4) | 0.104 | -0.422 |  | 
13 | TRERF1 C1065 | -0.233 | 0.315 |  | 
14 | TRAF6 C366 (UniProt Q9Y4K3) | -0.207 | -0.242 |  | 
15 | TRIO C1207 (UniProt O75962) |  | 0.535 |  | 
16 | TMEM201 C626 (UniProt Q5SNT2) | 0.142 | -0.046 |  | 
17 | TOP3A C190 (UniProt Q13472) | -0.0655 | -0.0469 |  | 
18 | TPX2 C100 (UniProt Q9ULW0) | 0.298 | -0.23 |  | 
19 | TRIM47 C347 (UniProt Q96LD4) | -0.0744 | 0.154 |  | 
20 | TNPO1 C164 (UniProt Q92973) | 0.442 | -0.0721 |  | 
21 | TMEM214 C222 (UniProt Q6NUQ4) | 0.529 | -0.158 |  | 
22 | TRIM56 C169 (UniProt Q9BRZ2) | -0.0609 | 0.0814 |  | 
23 | TMEM248 C305 (UniProt Q9NWD8) | -0.18 | -0.0444 |  | 
24 | TMCO6 C309 (UniProt Q96DC7) | 0.125 | 0.822 |  | 

An excerpt from above with just log2 mean competition ratio ([1]; 200 µM), log2 mean competition ratio ([2]; 50 µM) and log2 mean competition ratio ([1]; 50 µM).
Row | Target | log2 mean competition ratio ([1]; 200 µM) | log2 mean competition ratio ([2]; 50 µM) | log2 mean competition ratio ([1]; 50 µM)
8 | TLN2 C289 (UniProt Q9Y4G6) | 0.00269 |  | 0.407
9 | TMED9 C49 (UniProt Q9BVK6) | 0.0281 |  | -0.314
10 | TMEM223 C156 (UniProt A0PJW6) | 0.244 |  | 0.0991
11 | TMEM102 C162 (UniProt Q8N9M5) | -0.0805 |  | 0.271
12 | TMA16 C162 (UniProt Q96EY4) | -0.422 |  | 0.104

The list goes on.

Row | Target | log2 mean competition ratio ([1]; 50 µM) | log2 mean competition ratio ([1]; 200 µM) | log2 mean competition ratio ([2]; 50 µM) | log2 mean competition ratio ([2]; 200 µM)
25 | TMSB15A;TMSB15B C41;(C41) | 0.0123 | -0.184 |  | 
26 | TOP2A C170 (UniProt P11388) | 0.451 | 0.0174 |  | 
27 | TMEM214 C377 (UniProt Q6NUQ4) | -0.24 | -0.0723 |  | 
28 | TMLHE C103 (UniProt Q9NVH6) | -0.0659 | 0.564 |  | 
29 | TRAF2 C124 (UniProt Q12933) | -0.12 | -0.144 |  | 
30 | TNPO1 C862 (UniProt Q92973) | -0.197 | 0.194 |  | 
31 | TRAK1 C713 | -0.061 | -0.0838 |  | 
32 | TNPO3 C793 (UniProt Q9Y5L0) | 0.155 | 1.11 |  | 
33 | TLE4 C32 (UniProt Q04727) | 0.0647 | 0.23 |  | 
34 | TMCC3 C180 (UniProt Q9ULS5) | 0.145 | 0.514 |  | 
35 | TJP2 C601 (UniProt Q9UDY2) | -0.141 | -0.179 |  | 
36 | TOR3A C385 (UniProt Q9H497) | -0.0949 | 0.113 |  | 
37 | TMF1 C405 (UniProt P82094) | -0.491 | -0.441 |  | 
38 | TRAP1 C261 (UniProt Q12931) | -0.138 | -0.079 |  | 
39 | TRIM3 C227 (UniProt O75382) | -0.347 | 0.258 |  | 
40 | TIPRL C87 (UniProt O75663) | -0.00809 | -0.329 | 0.0862 | -0.215
41 | TPI1 C127 (UniProt P60174) | -0.0534 | 0.2 |  | 
42 | TM9SF2 C194 (UniProt Q99805) | -0.171 | -0.0745 |  | 
43 | TRIM11 C330 (UniProt Q96F44) | -0.157 | -0.232 | -0.192 | -0.15
44 | TPI1 C87 (UniProt P60174) | -0.0175 | -0.00222 |  | 
45 | TMEM50B C89 | 0.0852 | -0.0104 |  | 
46 | TRIP4 C86 (UniProt Q15650) | -0.142 | -0.173 | -0.284 | -0.0779
47 | TOMM34 C250 (UniProt Q15785) | -0.231 | -0.237 |  | 
48 | TRAF2 C156 (UniProt Q12933) | -0.154 | 0.0362 | -0.24 | -0.245

Row | Target | log2 mean competition ratio ([1]; 50 µM) | log2 mean competition ratio ([1]; 200 µM) | log2 mean competition ratio ([2]; 50 µM) | log2 mean competition ratio ([2]; 200 µM)
49 | TNPO3 C303 (UniProt Q9Y5L0) | -0.191 | -0.305 |  | 
50 | TM9SF1 C445 (UniProt O15321) | 0.162 | 0.0834 | 0.352 | 0.191
51 | TRAPPC13 C332 (UniProt A5PLN9) | -0.23 | -0.0866 |  | 
52 | TMEM214 C529 (UniProt Q6NUQ4) | 0.155 | -0.179 |  | 
53 | TRIO C2599 (UniProt O75962) | -0.398 | -0.471 |  | 
54 | TRAFD1 C135 (UniProt O14545) | -0.118 | -0.0493 |  | 
55 | TIMELESS C1126 (UniProt Q9UNS1) | -0.296 | 0.346 | 0.0509 | 0.0147
56 | TRAF3IP1 C594 (UniProt Q8TDR0) | 0.636 | 0.236 |  | 0.369
57 | TMEM143 C408 (UniProt Q96AN5) | -0.0104 | -0.262 |  | 
58 | TRIM33 C849 | 0.149 | 0.00573 |  | 
59 | TNRC6B C800 (UniProt Q9UPQ9) | -0.136 | -0.0315 |  | 
60 | TONSL C1340 (UniProt Q96HA7) | -0.103 | 0.23 |  | 0.179
61 | TRIP6 C429 (UniProt Q15654) | 0.17 | -0.354 | 0.281 | -0.326
62 | TNFRSF10B C248 (UniProt O14763) | -0.134 | -0.0364 |  | 
63 | TLN1 C732 (UniProt Q9Y490) | -0.464 | 0.316 |  | 
64 | TNPO3 C908 (UniProt Q9Y5L0) | -0.318 | 0.304 | 0.0232 | 0.404
65 | TMEM45A C38 | -0.0708 | 0.371 |  | 
66 | TNS3 C1241 (UniProt Q68CZ2) | 0.551 | 0.424 |  | 
67 | TNPO3 C125 (UniProt Q9Y5L0) | 0.121 | -0.214 |  | 
68 | TRIO C28 (UniProt O75962) | -0.25 | -0.414 | 0.127 | -0.373
69 | TMEM115 C156 (UniProt Q12893) | -0.0563 | 0.0531 |  | 
70 | TOR1AIP1 C424 (UniProt Q5JTV8) | 0.344 | 0.258 |  | 
71 | TRIP11 C212 (UniProt Q15643) | -0.315 | 0.425 | -0.431 | 0.0715
72 | TOB2 C120 | -0.322 | -0.0553 | -0.186 | -0.0682

Source: the supplement of paper PMC11732987, “Enantioselective OTUD7B fragment discovery through chemoproteomics screening and high-throughput optimisation” (Communications Chemistry, 2025)
